# Source: the supplement of paper PMC6411743
# Chains of the proteins cited; added tags and fusions are not shown.
# UniProt P54709, whole entry: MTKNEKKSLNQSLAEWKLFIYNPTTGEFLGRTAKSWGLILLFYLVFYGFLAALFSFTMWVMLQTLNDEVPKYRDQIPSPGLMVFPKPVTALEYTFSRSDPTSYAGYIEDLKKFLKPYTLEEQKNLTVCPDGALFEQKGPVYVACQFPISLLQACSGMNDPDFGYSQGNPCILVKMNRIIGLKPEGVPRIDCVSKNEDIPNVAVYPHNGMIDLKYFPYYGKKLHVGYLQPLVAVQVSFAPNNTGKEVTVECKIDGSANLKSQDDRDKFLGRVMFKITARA
# ± gives the standard deviation of the averaged measurements. This is a selection; strong and weak results do not stand in their true shares.
# Target: ATP1B3 (UniProt P54709)
# Test: NP40-soluble protein abundance relative to vehicle (solubility fold change) (ratio); higher = more soluble protein in presence of AMP-PNP
# Outline: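 Jurkat crude lysate prepared with a Dounce homogeniser was treated at eight concentrations spanning 0.1 to 10 mM, 10 min at room temperature then 3 min at 37 °C. Solubilisation with 0.8% NP40 and benzonase and ultracentrifugation preceded TMT labelling of the supernatant for LC-MS/MS. Fold change against the detergent-processed vehicle was determined per replicate from vsn-normalised intensities, across three independent experiments.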
smiles,measurement,setting,value
Nc1ncnc2c1ncn2[C@@H]1O[C@H](COP(=O)(O)OP(=O)(O)NP(=O)(O)O)[C@@H](O)[C@H]1O [adenylyl imidodiphosphate],NP40-soluble protein abundance,concentration: 1mM,1.01 ± 0.015
same,NP40-soluble protein abundance,concentration: 2mM,1.04 ± 0.063
same,NP40-soluble protein abundance,concentration: 4mM,0.9722 ± 0.004
same,NP40-soluble protein abundance,concentration: 6mM,1.01 ± 0.013
same,NP40-soluble protein abundance,concentration: 8mM,0.975 ± 0.011
same,NP40-soluble protein abundance,concentration: 10mM,1 ± 0.024
